# Measurements published in US4965283A, “Amino acid esters, process for the preparation thereof and use thereof” (Dr. Willmar Schwabe GmbH & Co., priority 1987, dated 1990).
# System: mouse
# Test: observation for neurotoxicity symptoms (motility, muscle tonus, respiratory frequency, body temperature, general behaviour)
# Type: in vivo
# Method: During the experiments described above, the animals were observed during the whole of the experimental period (up to 4 hours) for signs of substance-caused changes of behaviour and neurotoxicity (motility, muscle tonus, respiratory frequency, body temperature and general behaviour). Up to a dosage of 100 mg/kg, in the case of all the tested compounds, no neurotoxic symptoms were ascertained. In comparison hereto, Table 5 sets out the lower limiting dosages of conventional anticonvulsives which, after oral administration, bring about neurotoxicity symptoms in mice.
smiles,measurement,value
CN1C(=O)CN=C(c2ccccc2)c2cc(Cl)ccc21 [diazepam],"Neurotoxic limiting dose in the mouse, dose p.o.",40 mg/kg
